Laboratory results reported in PMC12216326.

Biological target: DDX39B (UAP56) (Homo sapiens) (UniProt Q13838)
Test: EMSA
Settings: 20 mM HEPES pH 7.0, 100 mM NaCl, 1 mM MgCl2, 6% glycerol, 1 mM ATPgS or AMPPNP, 0.5 mM TCEP, 30 ug/ml BSA, 0.5 U/ul SUPERase-In, room temperature, recombinant protein, residues 1-428, label: 5' Alexa Fluor 488

UUUUUUUUUU [poly(U) 10-mer RNA]
binding result (1 mM AMPPNP, 1 mM Mg2+, 0.6 uM DDX39B, 40 nM RNA): binds
binding result (1 mM ATPgS (printed ATP-S), 1 mM Mg2+, 0.6 uM DDX39B, 40 nM RNA): binds
binding result (ATPgS or AMPPNP as indicated, + 0.6 uM TREX-2.1 (LENG8 549-800/PCID2/DSS1), which releases DDX39B from RNA): binds more weakly

Construct, isoform or probe ends are uncertain for at least one entry. A weaker result is weaker than the reference pair of the same experiment. At least one verdict rests on a figure or table, not on a statement of the authors.
